# Data from PubChem BioAssay AID504467 (National Center for Advancing Translational Sciences (NCATS), 2011).
# The whole screen tested about 330,000 compounds, of which about 7,700 (2.3%) were called active. The shares of active, inactive and inconclusive entries below differ from those in the screen. Calls follow the shape of the dose curve; as a rule, active = well fitted inhibition curve with a large enough effect; inconclusive = small, poorly fitted or top-dose-only effect, or effect the other way; inactive = flat fitted curve, though single readings scatter. Potencies beside an inconclusive call are fits to weak or partial responses and may not hold up.
# Assay: qHTS screen for small molecules that inhibit ELG1-dependent DNA repair in human embryonic kidney (HEK293T) cells expressing luciferase-tagged ELG1; also: nearly all actives have a fitted effect of over 55% in size
# Conditions: HEK293T ELG1-luciferase reporter, luminescence, 16 h, DNA damage induced by 5-fluorouridine; series mostly up to 46.1 µM
# Summary of the method: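 5-Fluorouridine DNA damage + compound/DMSO, 2,000 cells/well, 16 h, 37 °C/5% CO2. ONE-Glo, 30 min RT, luminescence. Readout = decrease in reporter signal.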
# Potency is read from the fitted curve at half-maximal effect.
row,SMILES,Potency
1,COc1cccc(C(=O)NC2=NCCS2)c1,"inconclusive: 2.06 µM [activator, full curve]"
2,COc1ccc(N2CCN(CC(=O)Nc3sccc3C#N)CC2)cc1,"inconclusive: 20.6 µM [inhibitor, single point]"
3,O=C(c1cnn2c(C(F)(F)F)cc(-c3cccs3)nc12)N1CCN(C(c2ccccc2)c2ccccc2)CC1,active: 5.8 µM
4,CC12CCC(=O)N1C(C(=O)NCc1ccccc1Cl)CS2 (configuration not stated),"inconclusive: 29.1 µM [activator, single point]"
5,COc1cc(NC(=O)c2ccco2)c(OC)cc1NC(=O)CCC(=O)Nc1cc(C)cc(C)c1,active: 20.6 µM
6,COc1ccccc1Nc1nc(NCCCN(C)C)nc(N)c1[N+](=O)[O-],inactive
7,C=CCn1c(N)c(C(=O)OC(C)(C)C)c2nc3ccccc3nc21,"inconclusive: 32.6 µM [inhibitor, partial curve, poor fit]"
8,c1ccc(OCc2nc3ccccc3s2)cc1,"inconclusive: 5.17 µM [activator, partial curve]"
9,CCOc1ccc(S(=O)(=O)N2CCN(CC(O)COc3cccc([N+](=O)[O-])c3)CC2)cc1 (configuration not stated),active: 14.6 µM
10,C/C(=N/N=C/c1ccccc1O)c1ccccc1O,"inconclusive: 14.6 µM [activator, partial curve]"
11,Cc1nc(-c2ccc(NC(=O)C3CCCCC3)cc2)cs1,"inconclusive: 3.66 µM [activator, full curve]"
12,O=C(NNc1cc(C(F)(F)F)nc2ccccc12)Nc1cccc(Cl)c1,"inconclusive: 7.3 µM [inhibitor, partial curve]"
13,COc1ccc(CCN2C(=S)N(C)C(=O)C2CC(=O)Nc2ccc(OC)cc2)cc1 (configuration not stated),"inconclusive: 18.3 µM [inhibitor, single point]"
14,O=C(Nc1ccccc1F)c1ccc(CSc2ncccn2)cc1,"inconclusive: 9.2 µM [activator, partial curve]"
15,O=C(CCCCn1c(=O)[nH]c2ccccc2c1=O)NCCC1=CCCCC1,inactive
16,N=C1/C(=C\c2coc3ccccc3c2=O)C(=O)N=C2SC=CN12,inactive
17,Cc1cc2[nH]c(=O)c(=O)[nH]c2cc1S(=O)(=O)Nc1cccc(F)c1,inactive
18,COc1cc(Cc2nccc3cc(OC)c(OC)cc23)c(S(=O)(=O)O)cc1OC,inactive
19,COc1ccccc1CN1C(=O)CN(C2CCCCCC2)C(=O)C1c1ccc(F)cc1 (configuration not stated),"inconclusive: 20.6 µM [inhibitor, partial curve]"
20,Cc1ccc(C(=O)NCC(=O)N/N=C/c2cccs2)cc1[N+](=O)[O-],inactive
21,Cc1ccc(OCCOCCNC(C)C)c(Br)c1,inactive
22,O=C(CSc1ccccc1)N1CCCC(Nc2ccccc2)C1 (configuration not stated),inactive
23,Cc1cc(C(=O)N/N=C\c2cc(C(C)(C)C)c(O)c(C(C)(C)C)c2)n[nH]1,inactive
24,CN(CCCNC(=O)CCCOc1cc(=O)n(C)c2ccccc12)Cc1ccccc1,"inconclusive: 29.1 µM [activator, single point]"

row,SMILES,Potency
1,Cc1cccc2cc(C#N)c(NCCCn3ccnc3)nc12,"inconclusive: 23.1 µM [inhibitor, single point]"
2,Cc1cccc(C(=O)N2CCC(=O)N(C(COCc3cccc(Cl)c3)Cc3ccccc3)CC2)c1 (configuration not stated),"inconclusive: 29.1 µM [inhibitor, single point]"
3,C=CCc1c(C)nc(-c2ccccc2)nc1N/N=C/c1ccccc1,"inconclusive: 18.4 µM [inhibitor, single point]"
4,Cc1ccc(NC(=O)c2ncn[nH]2)cc1,"inconclusive: 29.1 µM [activator, single point]"
5,CC1CCCN(C(=O)CSc2cnc3ccccc3n2)C1 (configuration not stated),"inconclusive: 23.1 µM [activator, partial curve]"
6,O=C(COc1cccc2c1CCNC2=O)Nc1ccc(F)cc1,"inconclusive: 5.17 µM [activator, single point]"
7,Cn1ccsc1=NC(=O)c1ccc(CS(C)(=O)=O)cc1,"inconclusive: 16.4 µM [activator, partial curve, poor fit]"
8,COc1ccc(-n2c(C)nc(=O)c(-c3ccccc3)c2C)cc1,inactive
9,CCCCCCCNC(=O)C1(CC2CC(c3ccc(Cl)cc3)=NO2)CCN(C(=O)c2ccccc2)CC1 (configuration not stated),"inconclusive: 29.1 µM [inhibitor, single point]"
10,COCCCNC(=O)c1c(N)n(-c2ccccc2)c2nc3ccccc3nc12,"inconclusive: 29.1 µM [inhibitor, single point]"
11,O=C(OCC#CCSc1nc2ccccc2o1)c1ccco1,"inconclusive: 11.2 µM [activator, partial curve, poor fit]"
12,CCc1ccc2[nH]c(=O)c(CN(CCN3CCCC3)C(=O)NC3CCCCC3)cc2c1,inactive
13,COc1cc(-n2ccnc2SC)c(Cl)cc1Cl,"inconclusive: 3.16 µM [activator, full curve, poor fit]"
14,CC(=O)N1N=C(c2ccccc2)CC1c1ccc(F)cc1 (configuration not stated),"inconclusive: 35.5 µM [activator, single point]"
15,O=C(COc1ccccc1C(=O)Nc1ccccc1)c1ccc(Br)cc1,"inconclusive: 10.3 µM [inhibitor, partial curve, poor fit]"
16,Nc1ccc(-c2nc3ccc(N)cc3[nH]2)cc1,"inconclusive: 18.3 µM [activator, partial curve]"
17,COc1cccc2sc3cc(NCc4ccc(C)o4)ccc3c(=O)c12,"inconclusive: 16.4 µM [activator, partial curve]"
18,COC(=O)c1ccc(NC(=O)c2ccc(N(C)S(C)(=O)=O)cc2)cc1,active: 3.66 µM
19,O=C1CCC(C(=O)Nc2cccc3ccccc23)N1 (configuration not stated),inactive
20,CC(=O)NC1(c2ccccc2)CCN(Cc2nnnn2C(C)(C)C)CC1,inactive
21,O=C(CNc1ccc(F)cc1)c1ccccc1,"inconclusive: 18.3 µM [activator, single point]"
22,CCn1nnnc1SCC(=O)c1ccc(C)cc1C,"inconclusive: 6.51 µM [activator, partial curve]"
23,Cc1ccc(C)c(Nc2nc(N)c3ccccc3n2)c1,"inconclusive: 5.8 µM [activator, partial curve]"
24,Nc1c(Cl)cc(Cl)cc1C(=O)OCC(=O)N1CCOCC1,inactive

# A section of the results above, as a working copy:
row,SMILES,Potency
16,Nc1ccc(-c2nc3ccc(N)cc3[nH]2)cc1,"inconclusive: 18.3 µM [activator, partial curve]"
17,COc1cccc2sc3cc(NCc4ccc(C)o4)ccc3c(=O)c12,"inconclusive: 16.4 µM [activator, partial curve]"

# Carrying on:

row,SMILES,Potency
1,CC(C)Nc1nc(NC(C)C)nc(C(N)=O)n1,"inconclusive: 25.9 µM [activator, partial curve, poor fit]"
2,CC(=O)N1CCN(C(=S)c2ccc(Cl)cc2)CC1,"inconclusive: 20.6 µM [activator, single point]"
3,CC(C)c1ccc2nc(N)sc2c1,"inconclusive: 11.6 µM [activator, partial curve]"
4,Fc1cccc(-c2nnn3c2nc(Cl)c2ccccc23)c1,"inconclusive: 16.4 µM [activator, partial curve]"
5,COC(=O)c1c(NC(=O)CN2CCN(c3ccccc3OC)CC2)c2c(C)cccc2n1C,"inconclusive: 16.4 µM [inhibitor, partial curve]"
6,CCN(CC)CCn1c(NS(=O)(=O)c2ccc(Cl)cc2)nc2ccccc21,inactive
7,Cc1[nH]n(-c2ccc(Cl)cc2)c(=O)c1/C=N/n1c(C)nc2ccccc2c1=O,"inconclusive: 20.6 µM [inhibitor, single point]"
8,C[C@@H]1COC(=O)[C@@H](Cc2ccc(F)cc2)C/C=C\C[C@@H](CC(=O)N[C@H](CO)Cc2ccccc2)C(=O)N1,inactive
9,COc1ccc(COc2ccccc2C(N)=O)cc1F,"inconclusive: 20.6 µM [activator, single point]"
10,O=c1ccc(-c2ccccc2)nn1Cc1ccccc1F,inactive
11,Cc1nc(NC(=O)c2ccc3c(c2)OCO3)ccc1Br,"inconclusive: 7.3 µM [activator, partial curve]"
12,Cc1cccc(NC(=O)CCc2ccccc2)c1,"inconclusive: 25.9 µM [activator, single point]"
13,CN(CC(=O)Nc1ccc(Cl)cc1)c1ccc(S(=O)(=O)N2CCCCC2)cc1[N+](=O)[O-],active: 18.4 µM
14,COc1cc(OC)c(C(=O)Nc2ccc3ccccc3c2)cc1OC,"inconclusive: 11.2 µM [activator, partial curve, poor fit]"
15,Oc1ccc(C2=NNC(=NCc3ccc4c(c3)OCO4)SC2)c(O)c1,"inconclusive: 29.1 µM [activator, single point]"
16,O=C(Cn1nc(C(=O)O)c2ccccc2c1=O)Nc1nc(-c2ccccc2)cs1,"inconclusive: 20.6 µM [activator, partial curve]"
17,C=Cn1c(C(=O)O)ccc1-c1ccc(OC)cc1,"inconclusive: 18.3 µM [inhibitor, partial curve]"
18,COc1cccc(/C=C/C(=O)c2ccc(C)c([N+](=O)[O-])c2)c1,"inconclusive: 29.1 µM [activator, single point]"
19,O=C(Nc1ccccn1)c1cc2ccccc2cc1O,"inconclusive: 6.51 µM [activator, partial curve]"
20,CC(C)CC(=O)Nc1ccc(Oc2ccc(NC(=O)CC(C)C)cc2)cc1,inactive
21,CCOC(=O)C1(Cc2ccccc2)CCN(Cc2csc(C(C)=O)c2)CC1,inactive
22,COc1ccc(S(=O)(=O)N2CCN(C(=O)c3sccc3-c3ccccc3)CC2)cc1,inactive
23,O=C1c2ccccc2C(=O)C1C1=Nc2ccccc2NC(c2ccccc2)C1 (configuration not stated),"inconclusive: 5.8 µM [activator, full curve, poor fit]"
24,COc1cc(S(=O)(=O)n2nnc3ccccc32)c(OC)cc1Cl,"inconclusive: 4.61 µM [inhibitor, single point]"
